Test results: publication PMC4991852, “The Sac3 TPR-like region in the Saccharomyces cerevisiae TREX-2 complex is more extensive but independent of the CID region” (Journal of Structural Biology, 2016)
No constants are given. Whether binding was seen depends on the method and setting. For some of these results: In cells and extracts the contact can be indirect. Some results given as binding are weak or reduced against the parent protein; the word gives no strength. For some of these results: Tags and fused reporters may be left off the sequences shown.

Columns and labels:
[1] = biological target: T1, GST-Sac3 (residues 1-805) (S. cerevisiae) (UniProt P46674); assay: pull-down; GST-Sac3 co-expressed with Thp1, Sem1, Cdc31 and Sus1 in Sf9 from a single baculovirus; clarified lysate on glutathione Sepharose 4B, 50 mM Tris pH 8.0, 500 mM NaCl, 5 mM DTT; eluted by TEV cleavage; Coomassie-stained SDS-PAGE
T1 sequence (chain, minor phosphorylation, Ser71, Ser102, Ser592, Ser600, Ser684 (mass spectrometry)): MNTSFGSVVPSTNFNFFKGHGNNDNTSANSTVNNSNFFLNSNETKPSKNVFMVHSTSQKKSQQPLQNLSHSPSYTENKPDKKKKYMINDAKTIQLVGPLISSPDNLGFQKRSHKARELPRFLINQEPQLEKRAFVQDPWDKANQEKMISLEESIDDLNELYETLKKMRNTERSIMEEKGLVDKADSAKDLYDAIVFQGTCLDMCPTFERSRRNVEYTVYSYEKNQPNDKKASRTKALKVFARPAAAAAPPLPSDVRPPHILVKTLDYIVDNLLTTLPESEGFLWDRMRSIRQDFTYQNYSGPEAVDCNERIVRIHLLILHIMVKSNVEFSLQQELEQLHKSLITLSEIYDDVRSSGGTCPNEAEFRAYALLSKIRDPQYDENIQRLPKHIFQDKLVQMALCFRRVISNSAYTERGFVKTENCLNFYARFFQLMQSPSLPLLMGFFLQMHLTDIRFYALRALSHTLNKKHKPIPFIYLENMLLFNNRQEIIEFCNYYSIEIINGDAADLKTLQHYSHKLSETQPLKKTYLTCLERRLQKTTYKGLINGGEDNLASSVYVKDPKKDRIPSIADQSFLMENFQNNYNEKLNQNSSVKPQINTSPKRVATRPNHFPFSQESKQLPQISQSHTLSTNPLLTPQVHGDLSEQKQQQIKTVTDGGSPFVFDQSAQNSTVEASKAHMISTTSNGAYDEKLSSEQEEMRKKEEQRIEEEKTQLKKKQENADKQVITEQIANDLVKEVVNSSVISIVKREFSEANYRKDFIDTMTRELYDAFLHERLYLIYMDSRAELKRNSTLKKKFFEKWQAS

[2] = biological target: T2, full-length Sac3 (residues 1–1301) (S. cerevisiae) (UniProt P46674); assay: as above
T2 sequence: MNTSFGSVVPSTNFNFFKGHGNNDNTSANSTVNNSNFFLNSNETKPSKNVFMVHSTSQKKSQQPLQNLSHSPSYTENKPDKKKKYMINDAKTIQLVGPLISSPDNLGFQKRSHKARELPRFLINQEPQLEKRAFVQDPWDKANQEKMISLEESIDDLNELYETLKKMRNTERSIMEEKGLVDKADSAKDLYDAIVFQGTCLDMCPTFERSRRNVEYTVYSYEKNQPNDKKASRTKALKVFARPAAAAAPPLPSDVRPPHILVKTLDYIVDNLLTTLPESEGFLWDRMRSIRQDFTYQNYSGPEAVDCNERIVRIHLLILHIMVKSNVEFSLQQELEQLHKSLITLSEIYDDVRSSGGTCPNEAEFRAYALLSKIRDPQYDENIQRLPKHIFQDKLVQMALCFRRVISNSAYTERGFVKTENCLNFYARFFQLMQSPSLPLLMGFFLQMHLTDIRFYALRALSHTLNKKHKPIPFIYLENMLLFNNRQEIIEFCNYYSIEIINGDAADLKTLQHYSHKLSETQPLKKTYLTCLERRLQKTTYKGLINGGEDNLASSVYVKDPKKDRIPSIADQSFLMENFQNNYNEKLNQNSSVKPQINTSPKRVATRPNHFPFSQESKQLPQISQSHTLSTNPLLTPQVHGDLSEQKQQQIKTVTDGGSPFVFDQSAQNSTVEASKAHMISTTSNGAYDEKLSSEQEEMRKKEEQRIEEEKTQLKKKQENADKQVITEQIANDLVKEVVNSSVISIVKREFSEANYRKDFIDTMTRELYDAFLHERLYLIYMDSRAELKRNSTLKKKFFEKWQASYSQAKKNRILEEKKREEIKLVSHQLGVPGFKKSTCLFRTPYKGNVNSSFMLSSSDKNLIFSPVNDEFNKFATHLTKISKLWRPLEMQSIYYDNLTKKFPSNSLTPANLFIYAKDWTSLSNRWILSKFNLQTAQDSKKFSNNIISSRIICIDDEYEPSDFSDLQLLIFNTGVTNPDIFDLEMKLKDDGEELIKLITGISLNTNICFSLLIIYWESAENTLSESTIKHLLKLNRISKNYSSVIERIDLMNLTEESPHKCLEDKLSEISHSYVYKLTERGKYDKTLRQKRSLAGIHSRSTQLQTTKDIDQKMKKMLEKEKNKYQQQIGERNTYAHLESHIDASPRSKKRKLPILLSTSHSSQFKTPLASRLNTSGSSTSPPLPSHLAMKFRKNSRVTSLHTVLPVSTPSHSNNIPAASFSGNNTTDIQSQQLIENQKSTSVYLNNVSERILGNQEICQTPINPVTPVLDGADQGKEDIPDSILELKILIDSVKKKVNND

[3] = biological target: T3, Sac3 (residues 1-805), GST removed (S. cerevisiae) (UniProt P46674); assay: SEC-SAXS; on-line HPLC with Superdex 200 Increase 3.2/300, beamline BM29 (ESRF), 20 °C; mass from I(0) against a BSA standard; both purified
T3 sequence (chain, minor phosphorylation, Ser71, Ser102, Ser592, Ser600, Ser684 (mass spectrometry)): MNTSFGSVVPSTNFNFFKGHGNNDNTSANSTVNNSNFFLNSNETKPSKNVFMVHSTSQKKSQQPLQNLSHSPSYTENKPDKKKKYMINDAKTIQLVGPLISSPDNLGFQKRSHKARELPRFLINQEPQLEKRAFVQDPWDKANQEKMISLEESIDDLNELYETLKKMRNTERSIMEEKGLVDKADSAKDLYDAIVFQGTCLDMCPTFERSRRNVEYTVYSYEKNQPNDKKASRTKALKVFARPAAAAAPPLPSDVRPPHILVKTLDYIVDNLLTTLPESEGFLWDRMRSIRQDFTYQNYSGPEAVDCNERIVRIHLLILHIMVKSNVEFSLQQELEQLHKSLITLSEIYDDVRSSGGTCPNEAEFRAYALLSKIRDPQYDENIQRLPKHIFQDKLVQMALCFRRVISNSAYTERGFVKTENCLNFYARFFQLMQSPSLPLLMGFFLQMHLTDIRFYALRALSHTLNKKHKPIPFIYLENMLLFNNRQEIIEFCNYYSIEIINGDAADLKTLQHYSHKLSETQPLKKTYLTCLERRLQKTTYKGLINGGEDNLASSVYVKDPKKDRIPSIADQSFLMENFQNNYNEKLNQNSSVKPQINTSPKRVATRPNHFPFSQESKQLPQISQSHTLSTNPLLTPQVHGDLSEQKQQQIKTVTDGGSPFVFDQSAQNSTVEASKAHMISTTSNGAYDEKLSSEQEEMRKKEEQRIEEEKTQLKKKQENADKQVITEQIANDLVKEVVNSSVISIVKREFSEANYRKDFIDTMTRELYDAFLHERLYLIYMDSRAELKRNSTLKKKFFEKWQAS

[4] = biological target: T3, Sac3 (residues 1-805), GST removed (S. cerevisiae); assay: SEC; co-expressed complex after glutathione Sepharose, TEV and heparin; Superdex S200 26/60, 20 mM HEPES pH 8.0, 300 mM NaCl, 5 mM DTT; Coomassie-stained SDS-PAGE of fractions, identities by mass spectrometry; both purified
Sac3^M (S. cerevisiae) = biological target: T4, Sac3^M (S. cerevisiae) (UniProt P46674); assay: SEC-SAXS; on-line HPLC with Superdex 200 Increase 3.2/300, beamline BM29 (ESRF), 20 °C; mass from I(0) against a BSA standard; both purified
T4 sequence: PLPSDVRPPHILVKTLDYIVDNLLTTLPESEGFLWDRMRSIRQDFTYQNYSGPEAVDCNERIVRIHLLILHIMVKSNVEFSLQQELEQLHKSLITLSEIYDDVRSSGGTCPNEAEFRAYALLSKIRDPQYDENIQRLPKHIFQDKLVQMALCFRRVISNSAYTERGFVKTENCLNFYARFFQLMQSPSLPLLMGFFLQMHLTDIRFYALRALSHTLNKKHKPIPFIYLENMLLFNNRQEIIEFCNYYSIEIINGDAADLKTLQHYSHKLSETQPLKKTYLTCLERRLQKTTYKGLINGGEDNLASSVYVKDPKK

[5] = biological target: T3, Sac3 (residues 1-805), GST removed (S. cerevisiae); assay: cryo-EM structure; purified co-expressed TREX-2^1-805 complex at ~75 nM on graphene oxide coated holey carbon grids; 5.3 Å reconstruction of the M-region only; both purified
[6] = biological target: T3, Sac3 (residues 1-805), GST removed (S. cerevisiae); assay: crystal structure; scTREX-2^ΔC at 16.5 mg/ml, 20% PEG 3350, 0.2 M Mg formate, crystals grew over 2 weeks; 4.9 Å; crystals probably hold a proteolytic fragment (Sac3 up to about residue 555, Thp1, Sem1); both purified

Measured: binding

B1: Sus1 (natural protein, S. cerevisiae, UniProt Q6WNK7 1-96, looked up)
chain: MTMDTAQLKSQIQQYLVESGNYELISNELKARLLQEGWVDKVKDLTKSEMNINESTNFTQILSTVEPKALEMVSDSTRETVLKQIREFLEEIVDTQ
notes: Sus1, S. cerevisiae; source: Sf9, baculovirus, co-expressed with GST-Sac3; in lysate and purified with the complex (glutathione Sepharose, heparin, SEC)
binds: [1] | [2] | [3] | [4]

B2: Cdc31 (natural protein, S. cerevisiae, UniProt P06704 1-161, looked up)
chain: MSKNRSSLQSGPLNSELLEEQKQEIYEAFSLFDMNNDGFLDYHELKVAMKALGFELPKREILDLIDEYDSEGRHLMKYDDFYIVMGEKILKRDPLDEIKRAFQLFDDDHTGKISIKNLRRVAKELGETLTDEELRAMIEEFDLDGDGEINENEFIAICTDS
notes: Cdc31, S. cerevisiae; source: Sf9, baculovirus, co-expressed with GST-Sac3; in lysate and purified with the complex (glutathione Sepharose, heparin, SEC)
binds: [1] | [2] | [3] | [4]

B3: Thp1 (natural protein, S. cerevisiae, UniProt Q08231 1-455, looked up)
chain: MDMANQLLDELAHGNFSHLTLNLSQNGREIAILQKQLTGFDDKQLETFVEQHPAMPNDTRFKIMCTSFLNYARDVDPWSAWSSSDLIFEFYQCLINCLINDNAPHIEMLIPVATRETEFIINLAGKLDSFHLQLHTRSHQFLSHISSILSRLFNSIKPPRGNASSTNIPGKQRILLYLVNKLNNIYFRIESPQLCSNIFKNFQPKSMLAHFNEYQLDQQIEYRYLLGRYYLLNSQVHNAFVQFNEAFQSLLNLPLTNQAITRNGTRILNYMIPTGLILGKMVKWGPLRPFLSQETIDNWSVLYKHVRYGNIQGVSLWLRQNERHLCARQLLIVLLEKLPMVTYRNLIKTVIKSWTTEWGQNKLPYSLIERVLQLSIGPTFEDPGAQEITIYNGIHSPKNVENVLVTLINLGLLRANCFPQLQLCVVKKTTMIQEIVPPVNERITKMFPAHSHVLW
notes: Thp1, S. cerevisiae; The theoretical mass of 195 kDa for TREX-2^1-805 fits whole chains of the four small subunits; source: Sf9, baculovirus, co-expressed with GST-Sac3; in lysate and purified with the complex (glutathione Sepharose, heparin, SEC)
binds: all assays above

B4: Sem1 (natural protein, S. cerevisiae, UniProt O94742 1-89, looked up)
chain: MSTDVAAAQAQSKIDLTKKKNEEINKKSLEEDDEFEDFPIDTWANGETIKSNAVTQTNIWEENWDDVEVDDDFTNELKAELDRYKRENQ
notes: Sem1, S. cerevisiae; source: Sf9, baculovirus, co-expressed with GST-Sac3; in lysate and purified with the complex (glutathione Sepharose, heparin, SEC)
binds: all assays above
